The record followed here is publication PMC5410337, “Anti-cancer effect of novel PAK1 inhibitor via induction of PUMA-mediated cell death and p21-mediated cell cycle arrest” (Oncotarget, 2017).

Chains of the proteins cited; added tags and fusions are not shown. Lines headed by an entry give the natural chain unless they say otherwise; changes in a name come on top. Residues count along the entry.
UniProt Q13153: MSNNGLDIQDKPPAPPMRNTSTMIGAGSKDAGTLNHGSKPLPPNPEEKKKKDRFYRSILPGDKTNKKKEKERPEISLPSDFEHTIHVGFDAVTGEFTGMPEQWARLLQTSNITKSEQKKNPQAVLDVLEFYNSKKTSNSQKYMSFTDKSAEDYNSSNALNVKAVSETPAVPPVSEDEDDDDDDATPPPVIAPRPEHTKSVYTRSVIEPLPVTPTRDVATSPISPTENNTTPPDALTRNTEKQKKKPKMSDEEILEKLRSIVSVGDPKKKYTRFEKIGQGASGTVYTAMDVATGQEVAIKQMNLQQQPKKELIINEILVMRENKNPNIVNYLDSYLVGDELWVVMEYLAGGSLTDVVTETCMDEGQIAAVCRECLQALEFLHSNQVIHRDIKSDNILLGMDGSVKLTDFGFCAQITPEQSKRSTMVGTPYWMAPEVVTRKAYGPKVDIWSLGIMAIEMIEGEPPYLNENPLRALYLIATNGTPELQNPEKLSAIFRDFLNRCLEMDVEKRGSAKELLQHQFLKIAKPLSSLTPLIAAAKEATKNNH
GST-PAK1 N-terminal domain (residues 70-149): residues 70-149 of Q13153
UniProt P10415: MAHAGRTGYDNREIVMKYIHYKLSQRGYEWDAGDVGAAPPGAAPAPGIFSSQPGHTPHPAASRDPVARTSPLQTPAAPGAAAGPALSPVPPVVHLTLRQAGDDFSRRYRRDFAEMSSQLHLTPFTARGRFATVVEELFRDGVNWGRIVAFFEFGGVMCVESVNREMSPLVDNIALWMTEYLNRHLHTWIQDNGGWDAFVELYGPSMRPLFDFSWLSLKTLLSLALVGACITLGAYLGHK
UniProt P31749: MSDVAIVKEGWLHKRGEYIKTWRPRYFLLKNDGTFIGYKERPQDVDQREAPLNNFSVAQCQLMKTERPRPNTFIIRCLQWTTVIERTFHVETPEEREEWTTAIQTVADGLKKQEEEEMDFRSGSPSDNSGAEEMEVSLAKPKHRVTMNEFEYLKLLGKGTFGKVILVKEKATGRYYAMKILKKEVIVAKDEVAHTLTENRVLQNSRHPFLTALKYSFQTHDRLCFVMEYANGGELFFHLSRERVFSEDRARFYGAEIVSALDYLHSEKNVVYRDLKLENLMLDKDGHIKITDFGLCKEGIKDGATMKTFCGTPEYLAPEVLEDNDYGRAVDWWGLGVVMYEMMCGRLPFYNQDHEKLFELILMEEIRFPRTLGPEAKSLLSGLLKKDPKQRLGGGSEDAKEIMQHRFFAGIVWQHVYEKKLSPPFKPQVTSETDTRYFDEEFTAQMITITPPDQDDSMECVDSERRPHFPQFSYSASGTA
UniProt P38936: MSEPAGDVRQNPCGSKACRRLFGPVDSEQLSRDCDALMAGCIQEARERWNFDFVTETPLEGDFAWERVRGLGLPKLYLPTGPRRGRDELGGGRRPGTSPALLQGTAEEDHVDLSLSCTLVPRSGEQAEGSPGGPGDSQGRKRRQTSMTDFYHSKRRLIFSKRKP

Read-outs that look alike come from different tables or passages of the source. Results are given in words; binding and its absence hold for the method and conditions named. In cells and extracts the contact can be indirect. Some entries that bind do so weakly or less than the wild type. For some of these results: Where a sequence is shown, tags or fusion partners need not be part of it.

In test [1] the target is GST-PAK1 N-terminal domain (residues 70-149) (human) (UniProt Q13153). The test is described as follows: pull-down; agarose bead-conjugated GST-PAK1 N-terminal domain (70-149) incubated with transfected cell lysates (PUMA-FLAG in HEK293, or AKT) for 1 hr at 4°C, with DMSO, IPP-14, IPP-23 (5 uM) or AG879 (0.1 mM); western blot; only the target purified. On the technique in general: Immunoblotting shows a protein as a band on a membrane.

Another test addresses Bcl-2-HA (UniProt P10415). The test is described as follows: co-IP; whole cell lysates (RIPA buffer) of HEK293, HCT116 or HCT116 PUMA-deficient cells co-transfected with p21-FLAG and Bcl-2-HA for 24 hr, with or without IPP-14 (1 uM); anti-HA antibody 2 hr at 4°C, protein A/G agarose; blot with anti-FLAG, Actin and HA.
Test [2] has as its target GST-PAK1 N-terminal domain (residues 70-149) (human) (UniProt Q13153). The test is described as follows: pull-down; agarose bead-conjugated GST-PAK1 N-terminal domain (70-149) incubated with transfected cell lysates (PUMA-FLAG in HEK293, or AKT) for 1 hr at 4°C, with DMSO, IPP-14, IPP-23 (5 uM) or AG879 (0.1 mM); western blot; only the target purified. The source holds these as a separate data set.

The target of test [3] is PAK1 (immunoprecipitation assay) (UniProt Q13153). As to the kind of experiment: co-IP; IP assay of PAK1 and PUMA with a proper antibody and transfected lysates, with or without chemical; bait and constructs not told.

Turning to AKT1 (from UniProt P31749 1-480), the binding result in test [1] is “binds”. For p21-FLAG (from UniProt P38936 1-164), in the test with Bcl-2-HA, the binding entry is reported as “binds”.

B1: PUMA-FLAG (protein, UniProt Q9BXH1 1-193)
chain: MARARQEGSSPEPVEGLARDGPRPFPLGRLVPSAVSCGLCEPGLAAAPAAPTLLPAAYLCAPTAPPAVTAALGGSRWPGGPRSRPRGPRPDGPQPSLSLAEQHLESPVPSAPGALAGGPTQAAPGVRGEEEQWAREIGAQLRRMADDLNAQYERRRQEEQQRHRPSPWRVLYNLIMGLLPLPRGHRAPEMEPN
For B1, the binding entry in test [2] is recorded as “binds”.

B2: PUMA (immunoprecipitation assay) (protein, UniProt Q9BXH1 1-193)
chain: MARARQEGSSPEPVEGLARDGPRPFPLGRLVPSAVSCGLCEPGLAAAPAAPTLLPAAYLCAPTAPPAVTAALGGSRWPGGPRSRPRGPRPDGPQPSLSLAEQHLESPVPSAPGALAGGPTQAAPGVRGEEEQWAREIGAQLRRMADDLNAQYERRRQEEQQRHRPSPWRVLYNLIMGLLPLPRGHRAPEMEPN
For B2, the binding result in test [3] is recorded as “binds”.
